# Results are given in words; binding and its absence hold for the method and conditions named. Some entries that bind do so weakly or less than the wild type.
# The chains behind the UniProt entries cited, without tags or fusion partners. Residues count along the entry.
# UniProt Q13261, residues 31-205: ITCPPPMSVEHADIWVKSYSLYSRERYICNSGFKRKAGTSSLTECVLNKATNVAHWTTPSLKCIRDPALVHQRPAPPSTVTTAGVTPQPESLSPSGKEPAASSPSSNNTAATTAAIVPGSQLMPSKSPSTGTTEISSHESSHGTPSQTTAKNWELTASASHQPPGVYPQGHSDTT
# Target: constitutive membrane-bound IL15 (OT-IL15-292) expressed on TILs (human)
# Experiment: flow cytometry on transduced TILs, biotinylated IL15RaFc with streptavidin-BV421
substance,measurement,value
IL15RaFc-Biotin (ACRO Biosystems) (from UniProt Q13261 31-205) (Fc fusion),binding,binds

# Source: US20240108722A1, “TUMOR-INFILTRATING LYMPHOCYTES WITH MEMBRANE BOUND INTERLEUKIN 15 AND USES THEREOF” (OBSIDIAN THERAPEUTICS, INC., priority 2021, published 2024)
